# Measured data: PubChem BioAssay AID1259314 (Drosophila RNAi Screening Center, 2017)
# Test: 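Genes whose knock-down alters cell survival under toxic manganese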 (primary screen)
# Cells: Drosophila S2R+ cells
# Reagents: long dsRNA against Drosophila genes
# Timing: 5 days (4 days knock-down, then 1 day metal exposure)
# Treatment: manganese chloride added to 15 mM for 24 hours
# Read-out: 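Cellular ATP measured by luciferase light, scaled to the plate mean, averaged across replicates and z-scored over plates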
# Scale: mean ATP z-score: higher = more ATP than the plate average, more viable cells under manganese
# Call rule: 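a mean ATP z-score past 1.5 in either direction is called active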
# Calls: active = strong ATP change, up or down; inactive = no strong ATP change
# In all, the deposit lists about 3,100 reagents; shown is an unselected part. 289 of all reagents (9.3%) were called active. 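Active includes both higher and lower ATP than plate average; check the z-score sign for direction.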 A plus sign joins genes that one reagent is predicted to hit. Not given: the amount of reagent.
target,dsRNA,mean ATP z-score,Call
CG7218,DRSC16216,0.197,inactive
CG7218,DRSC27550,1.85,active
CG5078,DRSC11762,-0.951,inactive
Tmtc3 (Transmembrane O-mannosyltransferase targeting cadherins 3),DRSC04444,-1.02,inactive
et (eye transformer),DRSC19582,-0.118,inactive
Or63a (Odorant receptor 63a),DRSC08681,-0.342,inactive
Tyler + Shawn,DRSC19564,-0.0837,inactive
Tyler + Shawn,DRSC19565,0.12,inactive
CG13325,DRSC06362,-0.253,inactive
CG13325,DRSC24773,0.0727,inactive
gny (garnysstan),DRSC02810,1.07,inactive
gny (garnysstan),DRSC39750,1.14,inactive
COX4L (Cytochrome c oxidase subunit 4-like),DRSC04841,-0.701,inactive
COX4L (Cytochrome c oxidase subunit 4-like),DRSC39670,-0.319,inactive
Pex13 (Peroxin 13),DRSC06877,-0.682,inactive
Cad89D (Cadherin 89D),DRSC15022,0.442,inactive
Cad89D (Cadherin 89D),DRSC39775,-0.644,inactive
CG5885,DRSC02910,-1.17,inactive
CG5885,DRSC28761,2.18,active
CG13223,DRSC06344,-0.331,inactive
CG13223,DRSC39714,0.375,inactive
CG45067 + CG45066,DRSC08414,-0.989,inactive
CG45067 + CG45066,DRSC27186,1.06,inactive
trp (transient receptor potential),DRSC17088,-0.0663,inactive
trp (transient receptor potential),DRSC39559,-0.292,inactive
Toll-6,DRSC11304,-0.841,inactive
Toll-6,DRSC39854,6.65,active
Ephrin,DRSC17165,0.457,inactive
Ephrin,DRSC39417,0.33,inactive
Ephrin,DRSC39418,-0.726,inactive
CG33298,DRSC02210,-0.513,inactive
CG33298,DRSC02672,1.42,inactive
CG3168,DRSC18287,-2.35,active
CG3168,DRSC25481,-0.389,inactive
Cngl (Cyclic nucleotide-gated ion channel-like),DRSC20318,0.861,inactive
Cngl (Cyclic nucleotide-gated ion channel-like),DRSC23577,-0.881,inactive
Hgsnat (Heparan-alpha-glucosaminide N-acetyltransferase),DRSC18405,0.206,inactive
Hgsnat (Heparan-alpha-glucosaminide N-acetyltransferase),DRSC24716,-1.68,active
prom (prominin),DRSC22088,0.453,inactive
prom (prominin),DRSC26828,0.86,inactive
prom (prominin),DRSC27557,0.178,inactive
prom (prominin),DRSC39649,1.17,inactive
CG13907,DRSC08377,-1.47,inactive
CG13907,DRSC25983,-0.455,inactive
CG2991,DRSC00559,0.359,inactive
CG2991,DRSC26300,-0.816,inactive
CG7530,DRSC25476,4.4,active
CG7530,DRSC39584,-0.28,inactive
CG9702,DRSC16540,2.57,active
Lgr4 (Leucine-rich repeat-containing G protein-coupled receptor 4),DRSC18970,-0.79,inactive
Lgr4 (Leucine-rich repeat-containing G protein-coupled receptor 4),DRSC19884,0.223,inactive
Lgr4 (Leucine-rich repeat-containing G protein-coupled receptor 4),DRSC24434,-0.727,inactive
Hacd1 (3-hydroxyacyl-CoA dehydratase 1),DRSC02988,0.387,inactive
Gr21a (Gustatory receptor 21a),DRSC00366,1.42,inactive
Gr21a (Gustatory receptor 21a),DRSC28583,-0.00492,inactive
Irk3 (Inwardly rectifying potassium channel 3),DRSC02047,0.902,inactive
l(2)k05819 (lethal (2) k05819),DRSC00826,-0.246,inactive
l(2)k05819 (lethal (2) k05819),DRSC39612,-0.38,inactive
"SdhC (Succinate dehydrogenase, subunit C)",DRSC16088,-1.06,inactive
"SdhC (Succinate dehydrogenase, subunit C)",DRSC39835,-0.932,inactive
Stt3B,DRSC16781,-0.439,inactive
Stt3B,DRSC39644,-0.613,inactive
htl (heartless),DRSC16968,0.523,inactive
htl (heartless),DRSC36668,-0.12,inactive
CG7806,DRSC03071,0.683,inactive
CG7806,DRSC39811,-0.0612,inactive
mri (mrityu),DRSC08259,-0.907,inactive
mri (mrityu),DRSC27787,0.208,inactive
Lrp4 (LDL receptor related protein 4),DRSC20118,1.25,inactive
CG32262,DRSC08165,0.471,inactive
CG32262,DRSC29141,-0.816,inactive
CG31221,DRSC16217,0.351,inactive
CG31221,DRSC23748,-0.0478,inactive
CG6126,DRSC15971,-0.654,inactive
CG6126,DRSC39462,-0.649,inactive
Tsp5D (Tetraspanin 5D),DRSC18380,0.371,inactive
Tsp5D (Tetraspanin 5D),DRSC39908,2,active
CG14420,DRSC17917,0.0579,inactive
CG14420,DRSC25167,-0.486,inactive
Irk1 (Inwardly rectifying potassium channel 1),DRSC16106,-0.637,inactive
CG13920,DRSC08389,0.335,inactive
CG13920,DRSC39516,0.64,inactive
boss (bride of sevenless),DRSC16916,-0.426,inactive
boss (bride of sevenless),DRSC25941,0.92,inactive
rpk (ripped pocket),DRSC21656,0.13,inactive
CG1317,DRSC08305,-0.717,inactive
CG1317,DRSC39565,-0.506,inactive
Task7 (TWIK-related acid-sensitive K[+] channel 7),DRSC16477,-0.304,inactive
Task7 (TWIK-related acid-sensitive K[+] channel 7),DRSC26662,-0.0138,inactive
Nup62 (Nucleoporin 62kD),DRSC06970,1.83,active
nrv2 (nervana 2),DRSC00948,-0.0399,inactive
nrv2 (nervana 2),DRSC03383,-0.406,inactive
iav (inactive),DRSC25119,0.521,inactive
iav (inactive),DRSC39553,0.507,inactive
CG42269,DRSC10672,-0.772,inactive
CG42269,DRSC24477,0.751,inactive
Orco (Odorant receptor co-receptor),DRSC12358,0.139,inactive
Orco (Odorant receptor co-receptor),DRSC27061,1.04,inactive
PIG-A (Phosphatidylinositol glycan anchor biosynthesis class A),DRSC06982,-0.117,inactive
mthl7 (methuselah-like 7),DRSC10852,-0.363,inactive
mthl7 (methuselah-like 7),DRSC39583,0.745,inactive
CNT1 (Concentrative nucleoside transporter 1),DRSC06082,-0.733,inactive
CNT1 (Concentrative nucleoside transporter 1),DRSC29671,-0.291,inactive
osy (oskyddad),DRSC14903,-0.0607,inactive
osy (oskyddad),DRSC15979,-0.386,inactive
osy (oskyddad),DRSC15981,0.963,inactive
Jwa,DRSC02048,0.0817,inactive
Jwa,DRSC26655,0.874,inactive
Inx7 (Innexin 7),DRSC18784,0.154,inactive
Inx7 (Innexin 7),DRSC24113,0.523,inactive
fng (fringe),DRSC11887,-0.587,inactive
fng (fringe),DRSC21935,0.449,inactive
stet (stem cell tumor),DRSC08246,0.0765,inactive
stet (stem cell tumor),DRSC08283,-0.144,inactive
Sema1a (Semaphorin 1a),DRSC03433,-0.0661,inactive
GABA-B-R2 (metabotropic GABA-B receptor subtype 2),DRSC28127,0.439,inactive
GABA-B-R2 (metabotropic GABA-B receptor subtype 2),DRSC39461,-0.794,inactive
kcc (kazachoc),DRSC04316,-0.525,inactive
kcc (kazachoc),DRSC04516,1.06,inactive
CG1636,DRSC18111,4.48,active
Dh31-R (Diuretic hormone 31 Receptor),DRSC06669,-0.0765,inactive
Dh31-R (Diuretic hormone 31 Receptor),DRSC23417,-0.619,inactive
Tomosyn,DRSC19842,0.2,inactive
Tomosyn,DRSC25047,1.18,inactive
"ATPsynC (ATP synthase, subunit C)",DRSC15236,-2.38,active
"ATPsynC (ATP synthase, subunit C)",DRSC39449,-0.477,inactive
CG11262,DRSC09831,-0.519,inactive
CG11262,DRSC39465,-0.375,inactive
BBIP1 + CG8135,DRSC16384,-0.00922,inactive
BBIP1 + CG8135,DRSC26052,-0.0315,inactive
VhaM9.7-c (Vacuolar H[+] ATPase M9.7 subunit c),DRSC08204,-0.329,inactive
VhaM9.7-c (Vacuolar H[+] ATPase M9.7 subunit c),DRSC30083,0.233,inactive
sut2 (sugar transporter 2),DRSC07701,-0.617,inactive
sut2 (sugar transporter 2),DRSC39500,0.317,inactive
CG9459,DRSC16496,2.64,active
CG9459,DRSC39459,2.09,active
Gr22e (Gustatory receptor 22e),DRSC20912,1.73,active
CG13784,DRSC00974,1.03,inactive
Aplip1 (APPL-interacting protein 1),DRSC21587,-0.0251,inactive
Aplip1 (APPL-interacting protein 1),DRSC26312,0.169,inactive

Records listed so far with an active call (14):
target,dsRNA,mean ATP z-score,Call
CG7218,DRSC27550,1.85,active
CG5885,DRSC28761,2.18,active
Toll-6,DRSC39854,6.65,active
CG3168,DRSC18287,-2.35,active
Hgsnat (Heparan-alpha-glucosaminide N-acetyltransferase),DRSC24716,-1.68,active
CG7530,DRSC25476,4.4,active
CG9702,DRSC16540,2.57,active
Tsp5D (Tetraspanin 5D),DRSC39908,2,active
Nup62 (Nucleoporin 62kD),DRSC06970,1.83,active
CG1636,DRSC18111,4.48,active
"ATPsynC (ATP synthase, subunit C)",DRSC15236,-2.38,active
CG9459,DRSC16496,2.64,active
CG9459,DRSC39459,2.09,active
Gr22e (Gustatory receptor 22e),DRSC20912,1.73,active
